# No constants are given. Whether binding was seen depends on the method and setting. Binding calls can cover weak binding; strength is not graded here. Tags and fused reporters may be left off the sequences shown.
# Molecular target: T1, HMGB2, yeast two-hybrid fusion (pGBKT7-HMGB2) (UniProt P26583)
# T1 sequence: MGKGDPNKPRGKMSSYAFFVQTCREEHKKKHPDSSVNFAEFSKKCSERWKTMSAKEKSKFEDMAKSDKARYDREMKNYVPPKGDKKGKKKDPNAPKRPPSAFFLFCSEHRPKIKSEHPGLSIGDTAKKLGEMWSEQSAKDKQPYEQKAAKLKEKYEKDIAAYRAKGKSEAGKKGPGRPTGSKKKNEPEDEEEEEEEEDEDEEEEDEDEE
# Assay: two-hybrid; yeast; prey pGADT7-BRD4 with different BRD4 domains, bait pGBKT7-HMGB2; growth and blue colour on SD/-Trp/-Leu/-His/-Ade; prey and bait identities also exchanged
row,binding,Substance
1,no binding,"BRD4 BD1 domain, yeast two-hybrid fusion (pGADT7-BRD4) (domain or fragment)"
2,no binding,"BRD4 BD2 domain, yeast two-hybrid fusion (pGADT7-BRD4) (domain or fragment)"
3,binds,"BRD4 CTM domain, yeast two-hybrid fusion (pGADT7-BRD4) (domain or fragment)"
4,no binding,"BRD4 ET domain, yeast two-hybrid fusion (pGADT7-BRD4) (domain or fragment)"
